Assay results from article doi:10.1101/2021.12.22.473884.

Protein sequences, listed by entry. Tags and fused reporters are not part of them. Lines headed by an entry give the natural chain unless they say otherwise; changes in a name come on top.
UniProt Q9Y3I1: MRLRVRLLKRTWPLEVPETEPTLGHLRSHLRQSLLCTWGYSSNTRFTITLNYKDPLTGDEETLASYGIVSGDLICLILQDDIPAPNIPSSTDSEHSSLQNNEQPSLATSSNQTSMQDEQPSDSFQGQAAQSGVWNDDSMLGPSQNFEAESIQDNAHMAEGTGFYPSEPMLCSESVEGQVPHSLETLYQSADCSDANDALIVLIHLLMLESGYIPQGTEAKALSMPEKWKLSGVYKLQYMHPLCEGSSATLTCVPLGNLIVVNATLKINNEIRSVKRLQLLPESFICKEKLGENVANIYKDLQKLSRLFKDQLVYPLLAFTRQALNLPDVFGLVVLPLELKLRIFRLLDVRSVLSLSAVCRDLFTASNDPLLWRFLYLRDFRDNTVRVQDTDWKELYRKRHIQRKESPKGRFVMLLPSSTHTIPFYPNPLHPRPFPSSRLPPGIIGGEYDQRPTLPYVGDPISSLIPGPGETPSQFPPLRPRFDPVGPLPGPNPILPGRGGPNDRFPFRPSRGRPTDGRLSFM
UniProt Q9NQG6: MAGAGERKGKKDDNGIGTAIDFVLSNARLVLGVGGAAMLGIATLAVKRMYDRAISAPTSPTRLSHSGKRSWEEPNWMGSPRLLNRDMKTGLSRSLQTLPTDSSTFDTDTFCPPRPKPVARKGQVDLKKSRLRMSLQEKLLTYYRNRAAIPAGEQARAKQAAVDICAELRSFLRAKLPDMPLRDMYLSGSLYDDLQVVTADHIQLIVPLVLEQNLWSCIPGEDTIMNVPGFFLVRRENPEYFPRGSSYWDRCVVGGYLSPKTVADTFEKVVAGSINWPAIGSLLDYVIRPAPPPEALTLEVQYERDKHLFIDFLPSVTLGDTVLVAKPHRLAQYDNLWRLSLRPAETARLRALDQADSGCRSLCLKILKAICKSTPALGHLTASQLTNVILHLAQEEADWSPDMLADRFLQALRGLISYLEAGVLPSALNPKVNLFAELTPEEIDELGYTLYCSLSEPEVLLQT

Target: FLAG-Fbxo7 ΔF-box (human) (UniProt Q9Y3I1)
Experiment: co-IP

binding	Molecule
binds	MiD51-Myc (from UniProt Q9NQG6 1-463)
binds	MiD49-Myc (protein, UniProt Q96C03 1-454) MAEFSQKRGKRRSDEGLGSMVDFLLANARLVLGVGGAAVLGIATLAVKRFIDRATSPRDEDDTKADSWKELSLLKATPHLQPRPPPAALSQPVLPLAPSSSAPEGPAETDPEVTPQLSSPAPLCLTLQERLLAFERDRVTIPAAQVALAKQLAGDIALELQAYFRSKFPELPFGAFVPGGPLYDGLQAGAADHVRLLVPLVLEPGLWSLVPGVDTVARDPRCWAVRRTQLEFCPRGSSPWDRFLVGGYLSSRVLLELLRKALAASVNWPAIGSLLGCLIRPSMASEELLLEVQHERLELTVAVLVAVPGVDADDRLLLAWPLEGLAGNLWLQDLYPVEAARLRALDDHDAGTRRRLLLLLCAVCRGCSALGQLGRGHLTQVVLRLGEDNVDWTEEALGERFLQALELLIGSLEQASLPCHFNPSVNLFSSLREEEIDDIGYALYSGLQEPEGLL

No constants are given. Whether binding was seen depends on the method and setting. In cells and extracts the contact can be indirect. Binding calls can cover weak binding; strength is not graded here. Sequences can lack the tags named with a protein.
